From PubChem BioAssay AID1439 (NMMLSC, 2008)
The whole screen tested about 220,000 compounds, of which about 770 (0.35%) were called active. The inconclusive results got no clear call from the source; some entries with a clear call stand among them for comparison. No stated cut-off is given here; in the data, active means binding response below about 49% or above about 150%; inconclusive means no clear call, values can overlap the other calls; inactive means in between.

Amino acid sequences for entries named in this document (tags omitted).
UniProt P09471, whole entry, looked up: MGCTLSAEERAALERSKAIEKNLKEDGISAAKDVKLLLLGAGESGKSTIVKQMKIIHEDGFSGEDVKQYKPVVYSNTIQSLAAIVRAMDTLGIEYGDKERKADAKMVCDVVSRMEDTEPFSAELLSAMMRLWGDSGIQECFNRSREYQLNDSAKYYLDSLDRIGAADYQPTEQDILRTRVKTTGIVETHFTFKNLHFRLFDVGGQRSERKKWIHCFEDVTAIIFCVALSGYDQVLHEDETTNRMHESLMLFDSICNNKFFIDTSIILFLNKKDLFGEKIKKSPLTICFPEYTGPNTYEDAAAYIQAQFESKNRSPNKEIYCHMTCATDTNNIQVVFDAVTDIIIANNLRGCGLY

These molecules were tested against Guanine nucleotide-binding protein G(o) subunit alpha (Homo sapiens) (UniProt P09471) (assay: RGS7-Galphao binding modulators, primary screen, biochemical, multiplexed bead flow cytometry (AID 1439;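 further: fluorescent Galphao held in activated GDP-AlF4 state binding bead-coupled RGS7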)). Conditions: at 10 µM, actives lie on both sides.

SMILES	binding response (% of control)
CC(=O)NC(Cc1cccc(C)c1)C(=O)NC1CCN(C(=O)c2ccc([N+](=O)[O-])cc2)CC1 (stereo not given)	inactive: 103%
Cc1cc(C)n(CCC(=O)N/N=C/c2ccc(Cl)c([N+](=O)[O-])c2)n1	inconclusive: 143%
CCOC(=O)C1CCCN(c2c(NCCc3ccc(Cl)cc3)c(=O)c2=O)C1 (stereo not given)	inconclusive: -100%
Cc1ccc(C)n1-c1ccc(C(=O)N2CCC(C(N)=O)CC2)cc1	inconclusive: 97.4%
CCC(=O)NC(Nc1nc(C)cs1)(C(=O)OC)C(F)(F)F (stereo not given)	inactive: 92.6%
COc1ccc(/C=c2\s/c(=C\C(=O)C(C)(C)C)[nH]c2=O)cc1O	inconclusive: 74.4%
CC(C(=O)N1CCOCC1)n1cc([N+](=O)[O-])cn1 (stereo not given)	inactive: 95.5%
CC(Nc1n[nH]c(=S)[nH]c1=O)C(=O)OCc1ccccc1 (stereo not given)	inactive: 102%
O=C(/C=C/c1cc2ccccc2o1)c1ccccc1O	inconclusive: -354%
CC(C)(C)c1cc2nc(N)nc(N)n2n1	inconclusive: 98.9%
O=C(NCc1ccco1)C(C(=O)c1ccc(F)cc1)n1ccccc1=O (stereo not given)	inactive: 97.8%
Cc1onc(-c2c(Cl)cccc2Cl)c1C(=O)N1CCSCC1	inconclusive: 123%
O=C1c2ccccc2NC(c2cn[nH]c2-c2ccccc2)N1O (stereo not given)	inactive: 95.4%
C/C(Cc1ccccc1)=N\NC(=O)CNC(=O)/C=C\c1ccccc1	inconclusive: 105%
Cc1[nH]c(=S)[nH]c(=O)c1CCC1OCCO1	inconclusive: 42.1%
CCOC(=O)C(C(=O)OCC)C1OC(=O)c2cc3c(cc21)C(=O)OC3C(C(=O)OCC)C(=O)OCC (stereo not given)	active: 359% [activator]
COc1ccccc1Cc1nc(-c2cccnc2)no1	inconclusive: 115%
CCOC(=O)Cc1csc(NS(=O)(=O)c2ccc(Br)cc2)n1	inconclusive: 55.6%
Cc1nc(SCC(=O)O)c(C#N)c2c1CCCC2	inconclusive: 80.8%
O=C(NNC(=O)C1CC=CCC1C(=O)O)c1ccc(Cl)cc1 (stereo not given)	inactive: 97.5%
O=C(N/N=C/c1ccc2c(c1)OCO2)c1ccc(COc2cccc3cccnc23)cc1	inactive: 93.6%
CCCCOC(=O)N1CCOCCOCCOCC1	inconclusive: 70.9%
Cc1ccc(C2=NN(C(=O)CSc3nc4ncc(Cl)cc4[nH]3)C(c3ccco3)C2)cc1 (stereo not given)	inconclusive: 97.4%

SMILES	binding response (% of control)
N/N=C(/Cc1nc2ccccc2[nH]1)c1ccc([N+](=O)[O-])cc1	inconclusive: 94.4%
O=C(c1cc2c(=O)n3ccccc3nc2s1)N1CCc2ccccc2C1	inconclusive: 102%
O=C1C(=O)N(Cc2ccco2)C(c2cccs2)/C1=C(\O)c1cccc([N+](=O)[O-])c1 (stereo not given)	inconclusive: 109%
Cn1ccc(C(=O)N/N=C/c2ccccc2[N+](=O)[O-])n1	inconclusive: 83.1%
COc1cccc2sc(/N=C/N(C)C)nc12	inconclusive: 148%
Nc1nc(Nc2ccccc2)nc(NCCO)c1[N+](=O)[O-]	inconclusive: 163%
C=CCC(C(=O)OC)(C(=O)OC)c1ccc([N+](=O)[O-])cc1[N+](=O)[O-]	inconclusive: 92.1%
COc1ccccc1NC(=O)CSc1nnc(CCC(=O)Nc2ccccc2F)n1C	inconclusive: 116%
COC(=O)CCCC1=CC2=C(c3ccccc3)C(=O)C(C)(OC(=O)C3CCCC3)C(=O)C2=CN1CCN1CCOCC1 (stereo not given)	inconclusive: 106%
O=C(Cn1cnc2ccccc2c1=O)Nc1cccc(S(=O)(=O)N2CCCCC2)c1	inconclusive: -429%
CCNC(=O)C12CCC(C)(C(=O)O1)C2(C)C (stereo not given)	inactive: 92.4%
COc1cc(S(=O)(=O)N(Cc2cccs2)CC2CCCO2)ccc1-n1cnnn1 (stereo not given)	inactive: 126%
Cc1c(C(=O)OC(C)C)sc(NC(=O)C2CCCO2)c1C(=O)OC(C)C (stereo not given)	inactive: 94.2%
COC(=O)CC1(C(=O)OC)Oc2ccc(Br)cc2C(=O)N1c1cc(Cl)cc(Cl)c1 (stereo not given)	inconclusive: 102%
CCN(CC)CC(O)Cn1c(-c2ccccc2Cl)nc2ccccc21 (stereo not given)	inconclusive: 95.5%
Cc1cccc(NC(=O)C(=O)C2C(=O)Nc3ccccc32)c1 (stereo not given)	inconclusive: 119%
O=[N+]([O-])c1cc(Cl)cc(/C=N/NC(=S)Nc2cc(S(=O)(=O)N3CCOCC3)ccc2Cl)c1O	inconclusive: 81.5%
CCOc1ccc(NC(=O)CN(C)CC(=O)Nc2ccc(Br)cc2F)cc1OCC	inconclusive: 118%
O=C1CN(C(=O)c2cccc(S(=O)(=O)N3CCCC3)c2)c2ccccc2N1	inconclusive: 104%
N#Cc1nc(-c2ccc(F)cc2)oc1NCCCn1ccnc1	inconclusive: 83.1%
COc1ccc(CNc2nc3ccccc3n2C)c(O)c1	inconclusive: 111%
CCCOc1ccc2c(=O)c(-c3cc(C(=O)OC)oc3C)c(C)oc2c1	inactive: 98.1%
COC(=O)N/N=C/c1cn(Cc2ccc(F)cc2)c2ccccc12	inconclusive: 109%

Exported in markdown: two of the compounds above

| SMILES | binding response (% of control) |
| --- | --- |
| O=C(Cn1cnc2ccccc2c1=O)Nc1cccc(S(=O)(=O)N2CCCCC2)c1 | inconclusive: -429% |
| CCNC(=O)C12CCC(C)(C(=O)O1)C2(C)C (stereo not given) | inactive: 92.4% |

Shown with bars between the fields: entries from further up.
SMILES | binding response (% of control)
COC(=O)CCCC1=CC2=C(c3ccccc3)C(=O)C(C)(OC(=O)C3CCCC3)C(=O)C2=CN1CCN1CCOCC1 (stereo not given) | inconclusive: 106%
O=C(Cn1cnc2ccccc2c1=O)Nc1cccc(S(=O)(=O)N2CCCCC2)c1 | inconclusive: -429%

Later entries.

SMILES	binding response (% of control)
O=C(CNC(=S)N(Cc1ccc(F)cc1)C1CCCCC1)NCC1CCCO1 (stereo not given)	inconclusive: 110%
CCCCCc1cc(=O)oc2c(C(CCN(CC)CC)c3ccc(OC)cc3)c(OC)cc(OC)c12 (stereo not given)	inconclusive: 104%
CCSC1=N/C(=C\C=C2/Oc3ccccc3N2CC)C(=O)S1	inconclusive: 117%
COC(=O)COc1cccc2c(=O)n(CC(=O)N3CCC(C)CC3)ccc12	inconclusive: 328%
COc1ccc(Nc2nc(-c3ccccc3)nc3ccccc23)cc1S(=O)(=O)N1CCOCC1	inconclusive: 110%
O=C(Cn1c(=O)oc2cc(S(=O)(=O)N3CCCC3)ccc21)Nc1ccccc1Br	inconclusive: 91.4%
CS(=O)(=O)c1ccc2c(c1)sc1nc(=O)c(/C=C3/C=CC(=O)C(O)=C3)c(N)n12	inconclusive: -8.49%
CN(Cc1cccs1)C(=O)c1ccc(S(=O)(=O)NCc2ccco2)cc1	inconclusive: 109%
COc1cccc(CNC(=O)Cc2nc3nc(C)cc(C)n3n2)c1	inactive: 99.5%
O=C(COC(=O)c1cc(Br)ccc1Cl)NC1CCCC1	inconclusive: 64.9%
Cc1ccc2nc(SCc3cn4cccnc4n3)[nH]c2c1	inactive: 100%
COC(=O)[C@@H]1CCCN1Cc1c(C(=O)N2CCCCC2)nc2c(C)cccn12	inactive: 100%
CCOC(=O)c1ccccc1NC(=S)N1CCC(C(N)=O)CC1	inconclusive: 112%
c1ccc(CN2OCC3Cn4c(nc5ccccc54)C32)cc1 (stereo not given)	inconclusive: 73.2%
CCc1cc(C(=O)c2ccc(OC)cc2)c(NC(=O)CN2CCCC2)s1	inconclusive: -86.5%
O=C(Nc1nnc(-c2ccccn2)o1)c1cccc(Cl)c1	inconclusive: 108%
CCOC(=O)/C=c1\s/c(=C(\C#N)C(N)=O)n(-c2ccccc2)c1=O	inconclusive: 84.1%
COc1ccc(CCNC(=O)c2cccs2)cc1OC	inconclusive: 119%
COc1ccc(CCNC(=S)N2CCC(C(N)=O)CC2)cc1	inconclusive: 128%
CCOc1nc2c(c(-c3cccs3)c1C#N)Cc1ccccc1-2	inconclusive: -39.4%
CC1=C(C#N)C(=O)NC(=O)/C1=C\c1ccc(-c2cc(C)c(C)cc2[N+](=O)[O-])o1	inconclusive: 107%
C=CCC1(/C=N/O)CCOC(C)(C)C1 (stereo not given)	inconclusive: 95.8%
NC1=NC(=O)/C(=C\c2ccco2)S1	inconclusive: 96.8%

SMILES	binding response (% of control)
CCOC(=O)C(C)Oc1ccc(NC(=O)C(Cl)(Cl)Cl)cc1 (stereo not given)	inconclusive: 104%
Oc1ccccc1C=NCCN=Cc1ccccc1O	inconclusive: 85.7%
COc1ccccc1CCn1cc(C#N)c(=O)[nH]c1=O	inconclusive: -98.8%
COC(=O)c1cc(C(=O)c2ccccc2)n2c(=O)/c(=C\N(C)C)sc12	inconclusive: 111%
Cc1nc(Cl)c(Cl)n1CCOc1ccccc1	inconclusive: 377%
CCCOc1ccc(-c2nc(-c3ccc([N+](=O)[O-])cc3)cs2)cc1	inconclusive: 87.7%
Cc1ccc(S(=O)(=O)N2CCOC2C(Cl)(Cl)Cl)cc1 (stereo not given)	inconclusive: 78.3%
CC1CC(NC(=O)/C=C/C(=O)O)CC(C)(C)C1 (stereo not given)	inconclusive: 13.3%
COc1ccccc1NC(=O)COc1ccccc1C(=O)Nc1ccccc1	inconclusive: 68.2%
Cc1[nH][nH]c(=O)c1C=NCc1ccc(Cl)cc1	inconclusive: 102%
S=C(Nc1ccccn1)c1ccccn1	inconclusive: 103%
O=C(NC(=S)Nc1ccc2ncccc2c1)c1ccccc1	inconclusive: 95.8%
CN1C(=O)CC(c2cn(Cc3ccccc3)c3ccccc23)C1=O (stereo not given)	inconclusive: 93.2%
CC(=O)Nc1ccc(C(=O)OCC(=O)NCc2ccc(Cl)cc2)cc1	inactive: 100%
COc1ccc(CC(=O)NNC(=O)CSc2ccc(C)cc2)cc1	inconclusive: 117%
S=C(N/N=C/c1ccc2c(c1)OCO2)NC1CC2CCC1C2 (stereo not given)	inconclusive: 81.4%
CCOC(=O)c1cccc(-n2c(-c3ccc(OC)cc3)nc3nc4ccccc4nc32)c1	active: 179% [activator]
O=C(COC(=O)C1CC2C=CC1C2)Nc1cccc(S(=O)(=O)N2CCOCC2)c1 (stereo not given)	inconclusive: 826%
Cc1noc(NS(=O)(=O)c2ccc(NC(=O)c3cc(-c4ccccc4Cl)nc4ccccc34)cc2)c1C	inconclusive: 113%
S=c1[nH]nc(-c2ccco2)n1/N=C/c1ccccc1	inconclusive: 150%
Cc1ccc(S(=O)(=O)N2CCOCC2)cc1NC(=O)COC(=O)c1n[nH]c(=O)c2ccccc12	inconclusive: 89%
